Source: patent US6844190B2, “St-B17 serotonin receptor” (The United States of America as represented by the …, priority 1992, dated 2005)

The chains behind the UniProt entries cited, without tags or fusion partners. A line that says so, or that is headed by a name, gives the form on record, which may keep a tag or linker.
UniProt P31388, with tags, fused parts or gaps L57V: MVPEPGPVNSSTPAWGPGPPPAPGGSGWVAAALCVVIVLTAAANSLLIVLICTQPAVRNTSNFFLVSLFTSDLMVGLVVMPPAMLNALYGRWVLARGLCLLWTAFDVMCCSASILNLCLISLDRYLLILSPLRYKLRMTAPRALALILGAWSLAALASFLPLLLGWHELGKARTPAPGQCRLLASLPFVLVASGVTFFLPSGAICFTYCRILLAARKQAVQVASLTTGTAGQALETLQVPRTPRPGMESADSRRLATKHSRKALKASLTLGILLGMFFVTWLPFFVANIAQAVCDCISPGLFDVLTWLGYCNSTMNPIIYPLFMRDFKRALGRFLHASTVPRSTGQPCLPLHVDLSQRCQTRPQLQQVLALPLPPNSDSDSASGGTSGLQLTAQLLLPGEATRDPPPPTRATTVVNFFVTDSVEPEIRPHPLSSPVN

Tests used:
[1] = biological target: T1, St-B17 stably expressed in HEK-293 cells (Rattus norvegicus, UniProt P31388, L57V); assay: cAMP accumulation in intact HEK-293 cells stably expressing St-B17; format: cell-based; conditions: 10 μM final concentration, FIG. 5
T1 construct: expressed in transfected cells
Method: Human Embryonic Kidney cells (HEK 293 available from the ATCC) were stably co-transfected in 150mm dishes by the CaPO4 technique with 30 μg of pSRα-B17 and 3 μg of pMam-neo (INVITROGEN). These HEK 293 cells were then subjected to selection with 600 μg/ml genetecin (G418) (GIBCO). The resistant colonies were collected and screened for receptor expression by [^125I]-LSD binding as described in Example 6.
Intracellular cAMP levels were determined after a 5 minute incubation of intact cells with various test compounds at 37° C. in the presence of the cAMP phosphodiesterase inhibitor RO-20-1724, using a modification of a previously described cAMP assay (Monsma, F. J., Jr., Barton, A. C., and Sibley, D. R. (1990) J. Neurochemistry 54, 1200-1207) wherein the adrenal cAMP binding protein was replaced with 0.8 mg/ml protein kinase A in water.

[2] = biological target: St-B17 serotonin receptor (Rattus norvegicus, UniProt P31388, L57V); assay: [125I]-LSD competition binding, Cos-7 cell membranes expressing St-B17; design: expressed in transfected cells; host or cells: Cos-7 cells, transient transfection, crude membranes; conditions: qualitative statement
Method: This experiment was performed on Cos-7 cell membranes expressing the St-B17 serotonin receptor.

CCN(CC)C(=O)N[C@H]1C=C2c3cccc4[nH]cc(c34)C[C@H]2N(C)C1 [Lisuride]
effect on cAMP levels on their own (in words) [1]: stimulate cAMP accumulation
functional classification at St-B17 receptor [1]: partial agonists
affinity for St-B17 (in words) [2]: relatively high affinity
